Measured values published in article PMC10756122.

Protein sequences, listed by entry. Tags and fused reporters are not part of them. Lines headed by an entry give the natural chain unless they say otherwise; changes in a name come on top. Residues count along the entry.
UniProt O60911: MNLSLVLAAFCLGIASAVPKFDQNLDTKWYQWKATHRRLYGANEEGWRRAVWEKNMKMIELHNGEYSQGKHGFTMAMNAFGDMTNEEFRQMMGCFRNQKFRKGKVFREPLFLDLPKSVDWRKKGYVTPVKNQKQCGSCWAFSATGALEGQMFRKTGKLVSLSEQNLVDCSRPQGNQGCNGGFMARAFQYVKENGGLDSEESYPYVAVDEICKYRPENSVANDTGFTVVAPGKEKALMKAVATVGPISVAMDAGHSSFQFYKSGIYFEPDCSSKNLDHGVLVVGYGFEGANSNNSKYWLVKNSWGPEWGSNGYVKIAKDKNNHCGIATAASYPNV
UniProt P12830: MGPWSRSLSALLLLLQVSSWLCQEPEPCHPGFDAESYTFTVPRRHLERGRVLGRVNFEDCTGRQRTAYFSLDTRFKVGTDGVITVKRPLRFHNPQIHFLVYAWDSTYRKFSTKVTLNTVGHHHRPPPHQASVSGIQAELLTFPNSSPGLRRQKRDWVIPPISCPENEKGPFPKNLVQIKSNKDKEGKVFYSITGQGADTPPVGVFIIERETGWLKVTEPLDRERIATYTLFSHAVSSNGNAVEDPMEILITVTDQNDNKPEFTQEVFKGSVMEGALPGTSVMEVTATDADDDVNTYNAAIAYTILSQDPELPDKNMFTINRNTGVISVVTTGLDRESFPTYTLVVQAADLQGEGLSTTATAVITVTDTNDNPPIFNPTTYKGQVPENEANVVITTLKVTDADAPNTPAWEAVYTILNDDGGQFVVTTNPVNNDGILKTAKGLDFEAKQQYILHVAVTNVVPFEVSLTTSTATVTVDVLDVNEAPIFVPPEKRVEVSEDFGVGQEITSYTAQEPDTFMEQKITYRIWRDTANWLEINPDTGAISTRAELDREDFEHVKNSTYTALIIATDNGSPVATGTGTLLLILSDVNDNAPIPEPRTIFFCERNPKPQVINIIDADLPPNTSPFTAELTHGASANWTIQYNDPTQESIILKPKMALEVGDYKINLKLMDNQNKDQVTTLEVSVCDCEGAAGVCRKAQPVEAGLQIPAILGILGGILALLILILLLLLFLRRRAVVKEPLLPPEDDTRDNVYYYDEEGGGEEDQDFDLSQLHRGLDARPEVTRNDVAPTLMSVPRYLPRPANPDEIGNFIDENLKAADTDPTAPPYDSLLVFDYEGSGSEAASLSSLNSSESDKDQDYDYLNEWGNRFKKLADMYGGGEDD
UniProt P19022: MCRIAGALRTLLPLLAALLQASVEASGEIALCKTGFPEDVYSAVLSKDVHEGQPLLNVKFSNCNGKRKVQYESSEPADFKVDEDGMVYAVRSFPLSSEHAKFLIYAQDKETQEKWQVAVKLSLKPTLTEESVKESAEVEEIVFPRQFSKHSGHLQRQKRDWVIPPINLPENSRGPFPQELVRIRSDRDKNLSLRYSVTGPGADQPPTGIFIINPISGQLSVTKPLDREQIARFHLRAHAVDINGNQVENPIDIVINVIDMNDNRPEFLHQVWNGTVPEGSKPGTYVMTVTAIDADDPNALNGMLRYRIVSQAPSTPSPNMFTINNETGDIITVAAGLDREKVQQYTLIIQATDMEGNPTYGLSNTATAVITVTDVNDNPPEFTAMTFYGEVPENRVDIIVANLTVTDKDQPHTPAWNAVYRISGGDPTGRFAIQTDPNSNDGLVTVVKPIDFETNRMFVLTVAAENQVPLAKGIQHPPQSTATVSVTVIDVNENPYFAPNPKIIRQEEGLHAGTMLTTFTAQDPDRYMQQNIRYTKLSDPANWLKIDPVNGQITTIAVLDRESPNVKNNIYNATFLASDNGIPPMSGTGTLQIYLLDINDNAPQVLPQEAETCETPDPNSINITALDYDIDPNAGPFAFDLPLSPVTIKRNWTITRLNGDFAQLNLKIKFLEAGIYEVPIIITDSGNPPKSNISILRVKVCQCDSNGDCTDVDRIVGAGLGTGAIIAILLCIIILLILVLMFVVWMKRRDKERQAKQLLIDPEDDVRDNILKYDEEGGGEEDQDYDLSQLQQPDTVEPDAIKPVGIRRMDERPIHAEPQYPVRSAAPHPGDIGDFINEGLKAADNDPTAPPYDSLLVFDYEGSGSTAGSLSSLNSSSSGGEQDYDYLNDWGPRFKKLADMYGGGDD
UniProt P02751, residues 32-2477: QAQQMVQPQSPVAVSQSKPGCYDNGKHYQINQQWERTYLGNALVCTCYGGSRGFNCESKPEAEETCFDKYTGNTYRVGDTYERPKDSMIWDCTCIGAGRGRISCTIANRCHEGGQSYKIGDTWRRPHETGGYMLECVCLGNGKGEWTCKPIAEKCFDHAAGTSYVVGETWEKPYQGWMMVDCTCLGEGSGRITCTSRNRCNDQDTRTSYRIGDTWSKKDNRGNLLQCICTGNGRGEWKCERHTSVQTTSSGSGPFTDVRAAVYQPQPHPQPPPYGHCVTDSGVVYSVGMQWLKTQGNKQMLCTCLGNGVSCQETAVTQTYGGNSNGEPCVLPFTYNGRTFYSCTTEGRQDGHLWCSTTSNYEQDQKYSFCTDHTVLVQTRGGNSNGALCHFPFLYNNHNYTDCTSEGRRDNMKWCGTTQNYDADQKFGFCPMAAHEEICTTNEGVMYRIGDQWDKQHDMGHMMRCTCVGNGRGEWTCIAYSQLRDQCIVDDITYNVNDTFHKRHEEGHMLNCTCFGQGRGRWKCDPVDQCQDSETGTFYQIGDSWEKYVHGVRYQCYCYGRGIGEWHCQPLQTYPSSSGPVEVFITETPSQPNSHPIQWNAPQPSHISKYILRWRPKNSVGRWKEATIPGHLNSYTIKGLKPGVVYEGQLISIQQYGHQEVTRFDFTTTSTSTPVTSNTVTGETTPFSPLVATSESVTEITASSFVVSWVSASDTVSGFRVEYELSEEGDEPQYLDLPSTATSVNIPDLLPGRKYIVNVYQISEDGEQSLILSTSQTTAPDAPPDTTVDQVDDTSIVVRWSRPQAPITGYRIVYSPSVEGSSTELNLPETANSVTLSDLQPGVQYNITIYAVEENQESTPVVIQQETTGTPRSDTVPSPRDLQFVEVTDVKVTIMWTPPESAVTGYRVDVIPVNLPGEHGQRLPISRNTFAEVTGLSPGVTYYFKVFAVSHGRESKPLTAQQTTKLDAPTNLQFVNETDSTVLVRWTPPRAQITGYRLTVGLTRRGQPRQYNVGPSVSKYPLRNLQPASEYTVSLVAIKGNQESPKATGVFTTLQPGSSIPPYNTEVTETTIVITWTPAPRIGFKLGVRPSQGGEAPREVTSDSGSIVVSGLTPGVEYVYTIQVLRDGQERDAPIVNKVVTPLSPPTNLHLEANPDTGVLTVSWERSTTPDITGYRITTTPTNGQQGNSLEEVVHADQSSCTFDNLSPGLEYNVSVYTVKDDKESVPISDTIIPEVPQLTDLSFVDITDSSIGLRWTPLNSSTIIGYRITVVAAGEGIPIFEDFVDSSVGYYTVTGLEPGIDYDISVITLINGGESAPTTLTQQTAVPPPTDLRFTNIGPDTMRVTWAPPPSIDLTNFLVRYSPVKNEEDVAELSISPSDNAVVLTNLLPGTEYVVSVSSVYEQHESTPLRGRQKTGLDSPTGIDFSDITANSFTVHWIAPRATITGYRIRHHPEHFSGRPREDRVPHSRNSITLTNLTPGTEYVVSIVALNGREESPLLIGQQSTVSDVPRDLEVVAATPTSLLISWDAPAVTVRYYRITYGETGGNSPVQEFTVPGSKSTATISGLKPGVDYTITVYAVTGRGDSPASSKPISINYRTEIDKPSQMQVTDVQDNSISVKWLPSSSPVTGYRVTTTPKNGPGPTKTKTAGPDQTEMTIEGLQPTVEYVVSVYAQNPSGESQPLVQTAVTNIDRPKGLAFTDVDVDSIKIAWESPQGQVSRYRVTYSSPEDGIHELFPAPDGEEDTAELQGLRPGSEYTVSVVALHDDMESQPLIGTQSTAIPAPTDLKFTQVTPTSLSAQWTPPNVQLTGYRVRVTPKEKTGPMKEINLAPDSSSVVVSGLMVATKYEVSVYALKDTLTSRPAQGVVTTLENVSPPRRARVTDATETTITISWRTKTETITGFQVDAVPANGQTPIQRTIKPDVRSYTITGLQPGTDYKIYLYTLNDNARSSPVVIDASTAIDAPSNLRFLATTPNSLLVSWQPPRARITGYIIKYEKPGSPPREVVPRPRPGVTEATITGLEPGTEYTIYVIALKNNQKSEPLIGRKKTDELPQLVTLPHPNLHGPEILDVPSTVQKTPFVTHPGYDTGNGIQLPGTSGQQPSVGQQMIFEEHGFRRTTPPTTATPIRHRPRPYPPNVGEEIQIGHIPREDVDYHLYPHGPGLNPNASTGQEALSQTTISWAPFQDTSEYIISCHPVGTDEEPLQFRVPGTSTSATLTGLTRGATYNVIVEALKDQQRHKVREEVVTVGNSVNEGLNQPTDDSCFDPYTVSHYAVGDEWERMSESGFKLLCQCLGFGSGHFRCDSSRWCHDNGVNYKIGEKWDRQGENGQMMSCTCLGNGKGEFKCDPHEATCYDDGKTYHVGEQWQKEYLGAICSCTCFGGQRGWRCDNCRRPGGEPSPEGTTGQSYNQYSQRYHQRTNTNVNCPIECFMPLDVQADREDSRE

Columns and labels:
[1] = target: Cathepsin V (CTSV), endogenous (human (endogenous in A549)) (UniProt O60911); assay: co-IP; endogenous proteins, A549 lysate (RIPA); IP with antibody and control IgG; immunoblotting
[2] = target: E-cadherin, endogenous (human (endogenous in A549 and NCI-H1975)) (UniProt P12830); assay: co-IP; lysate (RIPA) of A549 cells stably expressing CTSV-HA; IP with anti-fibronectin, anti-E-cadherin and anti-N-cadherin antibodies; Western blotting
[3] = target: N-cadherin, endogenous (human (endogenous in A549 and NCI-H1975)) (UniProt P19022); assay: as above
[4] = target: fibronectin, endogenous (human (endogenous in A549 and NCI-H1975)) (UniProt P02751); assay: as above

binding [1]	binding [2]	binding [3]	binding [4]	Substance
binds				fibronectin, endogenous (from UniProt P02751 32-2477)
binds				E-cadherin, endogenous (from UniProt P12830)
	binds	binds	binds	CTSV-HA (HA-tagged Cathepsin V) (from UniProt O60911) (enzyme)

Results are given in words; binding and its absence hold for the method and conditions named. Binding seen in cells or lysates may run through a third protein. A result given as binding can be weak or reduced; the word gives no strength.
